From paper PMC5487340, “Peptides derived from MARCKS block coagulation complex assembly on phosphatidylserine” (Scientific Reports, 2017)
No constants are given. Whether binding was seen depends on the method and setting.

The chains behind the UniProt entries cited, without tags or fusion partners. Residues count along the entry.
UniProt P02769, residues 25-607: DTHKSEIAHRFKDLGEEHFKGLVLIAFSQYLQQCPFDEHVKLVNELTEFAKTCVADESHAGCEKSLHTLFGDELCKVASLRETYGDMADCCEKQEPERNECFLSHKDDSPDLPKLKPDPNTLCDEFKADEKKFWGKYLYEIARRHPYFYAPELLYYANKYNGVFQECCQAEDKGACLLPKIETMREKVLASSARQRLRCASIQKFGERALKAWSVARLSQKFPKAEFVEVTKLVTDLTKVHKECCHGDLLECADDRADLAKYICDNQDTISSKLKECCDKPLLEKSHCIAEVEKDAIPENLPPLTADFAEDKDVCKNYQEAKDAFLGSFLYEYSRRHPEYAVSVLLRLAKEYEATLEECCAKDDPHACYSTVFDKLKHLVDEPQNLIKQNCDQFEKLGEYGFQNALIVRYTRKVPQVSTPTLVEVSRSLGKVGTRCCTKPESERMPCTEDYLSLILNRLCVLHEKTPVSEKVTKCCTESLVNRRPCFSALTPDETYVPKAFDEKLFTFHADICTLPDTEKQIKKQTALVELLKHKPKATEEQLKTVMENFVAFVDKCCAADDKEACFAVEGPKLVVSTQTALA
UniProt P08758: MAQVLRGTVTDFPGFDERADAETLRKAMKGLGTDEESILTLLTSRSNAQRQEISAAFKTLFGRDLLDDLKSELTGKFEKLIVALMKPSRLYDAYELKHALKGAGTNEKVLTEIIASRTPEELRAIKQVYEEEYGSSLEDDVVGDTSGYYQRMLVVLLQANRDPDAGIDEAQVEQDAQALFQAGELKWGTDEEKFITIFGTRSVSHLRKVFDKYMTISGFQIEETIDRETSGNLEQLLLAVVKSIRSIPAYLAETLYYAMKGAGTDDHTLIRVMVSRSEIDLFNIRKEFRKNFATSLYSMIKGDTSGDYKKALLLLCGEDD

Target: bovine serum albumin (bovine) (UniProt P02769)
Experiment: SPR; control flow cell of an HPP (alkyl-SAM) sensor chip coated only with BSA; peptides and proteins flowed over; HBS running buffer (10 mM HEPES, 0.15 M NaCl, pH 7.4) with 2 mM CaCl2; both purified

binding	Molecule
no binding	annexin V (from UniProt P08758 1-320)
no binding	GGDYDKIGKNDA (C-terminal amide (CONH2)) [C2BL3-L]
